Measured values as given in article PMC4340420.
Results are given in words; binding and its absence hold for the method and conditions named. Binding seen in cells or lysates may run through a third protein. Here binding means that the protein was enriched with, or labelled near, the bait; the list need not be complete.

Protein sequences, listed by entry. Tags and fused reporters are not part of them.
UniProt Q9NYV4: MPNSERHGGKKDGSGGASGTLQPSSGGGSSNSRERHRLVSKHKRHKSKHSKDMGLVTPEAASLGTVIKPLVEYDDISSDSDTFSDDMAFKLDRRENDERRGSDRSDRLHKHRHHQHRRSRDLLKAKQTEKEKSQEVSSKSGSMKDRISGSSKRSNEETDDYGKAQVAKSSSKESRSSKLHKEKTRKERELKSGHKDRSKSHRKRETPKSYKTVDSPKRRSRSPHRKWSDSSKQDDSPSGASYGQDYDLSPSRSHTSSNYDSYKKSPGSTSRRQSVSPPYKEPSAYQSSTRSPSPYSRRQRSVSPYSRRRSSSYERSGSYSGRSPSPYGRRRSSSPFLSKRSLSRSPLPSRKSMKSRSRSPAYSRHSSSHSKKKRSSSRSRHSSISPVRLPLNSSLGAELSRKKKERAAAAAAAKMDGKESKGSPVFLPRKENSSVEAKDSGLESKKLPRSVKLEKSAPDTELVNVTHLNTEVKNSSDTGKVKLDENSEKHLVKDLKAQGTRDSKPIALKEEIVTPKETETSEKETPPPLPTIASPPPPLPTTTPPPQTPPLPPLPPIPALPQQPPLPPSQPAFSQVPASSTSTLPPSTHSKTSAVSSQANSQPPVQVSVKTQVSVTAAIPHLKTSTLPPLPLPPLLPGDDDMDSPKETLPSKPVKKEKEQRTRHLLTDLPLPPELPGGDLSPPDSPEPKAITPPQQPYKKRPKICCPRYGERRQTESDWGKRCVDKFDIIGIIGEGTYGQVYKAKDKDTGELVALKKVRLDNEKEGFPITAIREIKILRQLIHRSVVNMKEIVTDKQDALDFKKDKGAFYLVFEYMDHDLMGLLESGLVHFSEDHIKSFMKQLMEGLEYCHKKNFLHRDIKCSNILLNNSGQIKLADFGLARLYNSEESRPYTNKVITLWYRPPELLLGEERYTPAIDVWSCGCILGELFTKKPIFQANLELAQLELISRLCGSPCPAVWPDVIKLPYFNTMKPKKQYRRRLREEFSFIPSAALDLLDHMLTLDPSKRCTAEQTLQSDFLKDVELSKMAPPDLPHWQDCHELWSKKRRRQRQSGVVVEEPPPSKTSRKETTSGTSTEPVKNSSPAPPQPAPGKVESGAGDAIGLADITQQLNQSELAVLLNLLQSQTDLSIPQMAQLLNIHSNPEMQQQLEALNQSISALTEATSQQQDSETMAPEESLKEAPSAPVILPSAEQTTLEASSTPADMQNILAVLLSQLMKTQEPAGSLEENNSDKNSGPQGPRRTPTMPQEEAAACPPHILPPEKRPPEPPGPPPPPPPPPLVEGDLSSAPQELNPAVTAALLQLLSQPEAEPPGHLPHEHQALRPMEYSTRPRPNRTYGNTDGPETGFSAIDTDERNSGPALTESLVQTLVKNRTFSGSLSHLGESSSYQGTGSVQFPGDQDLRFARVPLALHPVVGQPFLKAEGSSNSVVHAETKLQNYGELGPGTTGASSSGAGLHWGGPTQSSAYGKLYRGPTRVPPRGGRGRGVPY
UniProt O75494: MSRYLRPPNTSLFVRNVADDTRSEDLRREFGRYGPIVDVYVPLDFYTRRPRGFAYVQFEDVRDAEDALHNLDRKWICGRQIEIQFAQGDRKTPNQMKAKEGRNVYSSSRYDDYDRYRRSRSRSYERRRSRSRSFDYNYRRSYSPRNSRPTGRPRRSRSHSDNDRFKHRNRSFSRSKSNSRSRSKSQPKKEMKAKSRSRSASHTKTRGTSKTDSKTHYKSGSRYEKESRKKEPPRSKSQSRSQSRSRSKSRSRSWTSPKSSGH
UniProt Q07955: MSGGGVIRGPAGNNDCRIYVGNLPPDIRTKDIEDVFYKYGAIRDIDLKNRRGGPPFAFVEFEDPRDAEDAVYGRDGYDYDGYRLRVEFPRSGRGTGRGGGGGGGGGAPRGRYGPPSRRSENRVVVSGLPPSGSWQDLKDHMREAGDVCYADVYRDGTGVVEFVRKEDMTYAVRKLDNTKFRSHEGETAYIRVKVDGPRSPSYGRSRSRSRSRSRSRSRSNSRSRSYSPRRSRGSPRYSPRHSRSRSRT
UniProt Q4VXU2: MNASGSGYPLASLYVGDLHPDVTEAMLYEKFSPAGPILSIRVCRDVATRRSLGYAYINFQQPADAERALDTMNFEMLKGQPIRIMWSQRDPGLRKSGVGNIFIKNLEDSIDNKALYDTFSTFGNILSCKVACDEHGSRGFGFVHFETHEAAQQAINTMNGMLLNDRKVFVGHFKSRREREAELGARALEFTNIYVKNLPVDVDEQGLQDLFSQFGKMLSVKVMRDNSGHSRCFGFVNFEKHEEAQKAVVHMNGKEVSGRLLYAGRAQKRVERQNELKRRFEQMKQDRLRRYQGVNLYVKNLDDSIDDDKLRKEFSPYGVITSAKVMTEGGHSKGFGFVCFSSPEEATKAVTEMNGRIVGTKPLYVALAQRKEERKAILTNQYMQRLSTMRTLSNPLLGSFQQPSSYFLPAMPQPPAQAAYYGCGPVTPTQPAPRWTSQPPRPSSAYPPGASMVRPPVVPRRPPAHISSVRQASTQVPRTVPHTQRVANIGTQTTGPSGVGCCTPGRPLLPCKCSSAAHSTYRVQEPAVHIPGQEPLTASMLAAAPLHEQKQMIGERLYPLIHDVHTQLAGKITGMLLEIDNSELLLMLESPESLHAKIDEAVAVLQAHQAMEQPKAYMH
UniProt P61326: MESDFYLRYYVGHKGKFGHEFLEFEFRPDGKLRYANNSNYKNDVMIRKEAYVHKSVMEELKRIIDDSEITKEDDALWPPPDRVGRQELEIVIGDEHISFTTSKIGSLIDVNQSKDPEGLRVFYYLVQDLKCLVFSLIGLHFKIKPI
UniProt P38919: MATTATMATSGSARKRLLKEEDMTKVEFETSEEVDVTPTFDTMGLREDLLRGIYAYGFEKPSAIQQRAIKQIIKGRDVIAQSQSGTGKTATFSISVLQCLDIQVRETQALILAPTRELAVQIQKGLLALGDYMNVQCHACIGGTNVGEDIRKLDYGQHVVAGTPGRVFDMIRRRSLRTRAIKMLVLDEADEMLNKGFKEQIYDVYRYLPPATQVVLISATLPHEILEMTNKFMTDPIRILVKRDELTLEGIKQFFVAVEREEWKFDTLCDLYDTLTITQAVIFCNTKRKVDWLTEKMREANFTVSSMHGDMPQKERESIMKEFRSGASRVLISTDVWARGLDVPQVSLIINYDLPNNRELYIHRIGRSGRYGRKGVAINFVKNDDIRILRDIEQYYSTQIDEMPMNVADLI
UniProt Q13242: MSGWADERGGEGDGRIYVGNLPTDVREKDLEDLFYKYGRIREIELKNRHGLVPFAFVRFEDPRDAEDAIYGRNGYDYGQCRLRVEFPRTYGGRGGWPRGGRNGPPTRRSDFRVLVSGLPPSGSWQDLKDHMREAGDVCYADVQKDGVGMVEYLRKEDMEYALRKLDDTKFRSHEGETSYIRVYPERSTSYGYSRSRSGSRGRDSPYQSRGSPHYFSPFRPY
UniProt O94913: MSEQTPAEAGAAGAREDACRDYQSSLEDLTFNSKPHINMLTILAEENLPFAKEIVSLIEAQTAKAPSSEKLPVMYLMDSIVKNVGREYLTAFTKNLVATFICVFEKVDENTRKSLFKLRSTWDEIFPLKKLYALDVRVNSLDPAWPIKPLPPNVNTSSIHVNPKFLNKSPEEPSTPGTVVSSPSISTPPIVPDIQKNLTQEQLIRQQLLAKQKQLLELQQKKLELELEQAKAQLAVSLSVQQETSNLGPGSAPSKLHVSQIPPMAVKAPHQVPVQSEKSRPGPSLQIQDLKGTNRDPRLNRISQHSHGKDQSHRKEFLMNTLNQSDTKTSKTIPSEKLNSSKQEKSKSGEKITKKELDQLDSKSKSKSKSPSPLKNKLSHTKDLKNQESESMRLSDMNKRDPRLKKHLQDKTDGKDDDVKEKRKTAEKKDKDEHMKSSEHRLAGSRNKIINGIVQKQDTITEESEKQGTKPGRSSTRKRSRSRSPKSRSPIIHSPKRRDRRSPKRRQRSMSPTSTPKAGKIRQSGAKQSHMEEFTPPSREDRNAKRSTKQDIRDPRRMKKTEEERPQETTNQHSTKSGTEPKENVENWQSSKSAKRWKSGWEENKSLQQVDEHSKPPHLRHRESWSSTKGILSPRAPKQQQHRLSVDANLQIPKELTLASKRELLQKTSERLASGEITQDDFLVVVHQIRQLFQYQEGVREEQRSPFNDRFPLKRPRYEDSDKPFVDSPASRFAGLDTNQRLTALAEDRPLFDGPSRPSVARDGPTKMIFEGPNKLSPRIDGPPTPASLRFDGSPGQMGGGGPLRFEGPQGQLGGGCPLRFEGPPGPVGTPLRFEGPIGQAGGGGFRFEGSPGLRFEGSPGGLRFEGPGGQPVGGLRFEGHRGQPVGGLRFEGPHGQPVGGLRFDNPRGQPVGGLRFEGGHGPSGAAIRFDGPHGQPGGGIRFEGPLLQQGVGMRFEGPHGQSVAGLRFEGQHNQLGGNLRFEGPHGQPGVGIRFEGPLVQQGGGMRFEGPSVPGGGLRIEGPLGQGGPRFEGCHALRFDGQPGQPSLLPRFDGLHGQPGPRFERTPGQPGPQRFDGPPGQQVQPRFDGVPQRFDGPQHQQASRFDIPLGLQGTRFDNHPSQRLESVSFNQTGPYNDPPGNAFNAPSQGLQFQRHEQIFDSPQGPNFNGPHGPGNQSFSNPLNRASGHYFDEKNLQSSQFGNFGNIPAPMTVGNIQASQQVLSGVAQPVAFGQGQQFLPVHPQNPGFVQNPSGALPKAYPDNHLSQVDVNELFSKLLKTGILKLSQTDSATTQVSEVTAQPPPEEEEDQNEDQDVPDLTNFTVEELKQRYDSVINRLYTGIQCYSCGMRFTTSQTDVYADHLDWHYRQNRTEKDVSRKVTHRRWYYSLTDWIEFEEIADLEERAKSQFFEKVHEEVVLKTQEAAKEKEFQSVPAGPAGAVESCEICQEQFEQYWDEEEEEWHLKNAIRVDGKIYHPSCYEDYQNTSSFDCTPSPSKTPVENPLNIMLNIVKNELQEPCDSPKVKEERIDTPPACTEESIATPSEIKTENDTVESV

The molecules below were run against CDK12 (endogenous, HeLa nuclear extract) (human (endogenous in HeLa)) (UniProt Q9NYV4) (assay: affinity purification with mass spectrometry; endogenous CDK12 immunopurified from HeLa Dignam-Roeder nuclear extract (about 4 mg/ml, 400 mM NaCl) with rabbit anti-hCDK12 IgG cross-linked to anti-rabbit IgG avidin resin, overnight, 4 °C; washes with 400 mM NaCl buffer and 1% Nonidet P-40; formic acid elution; LC MS/MS; proteins present in total rabbit IgG control filtered out).

| Molecule | binding |
| --- | --- |
| SR Splicing Factor SRSF10 (from UniProt O75494 1-262) | binds |
| SR Splicing Factor SRSF1 (from UniProt Q07955 1-248) | binds |
| PAP1L (from UniProt Q4VXU2 1-619) | binds |
| SR Splicing Factor SRSF5 (protein, UniProt Q13243 1-272) MSGCRVFIGRLNPAAREKDVERFFKGYGRIRDIDLKRGFGFVEFEDPRDADDAVYELDGKELCSERVTIEHARARSRGGRGRGRYSDRFSSRRPRNDRRNAPPVRTENRLIVENLSSRVSWQDLKDFMRQAGEVTFADAHRPKLNEGVVEFASYGDLKNAIEKLSGKEINGRKIKLIEGSKRHSRSRSRSRSRTRSSSRSRSRSRSRSRKSYSRSRSRSRSRSRSKSRSVSRSPVPEKSQKRGSSSRSKSPASVDRQRSRSRSRSRSVDSGN | binds |
| TRA2B (protein, UniProt P62995 1-288) MSDSGEQNYGERESRSASRSGSAHGSGKSARHTPARSRSKEDSRRSRSKSRSRSESRSRSRRSSRRHYTRSRSRSRSHRRSRSRSYSRDYRRRHSHSHSPMSTRRRHVGNRANPDPNCCLGVFGLSLYTTERDLREVFSKYGPIADVSIVYDQQSRRSRGFAFVYFENVDDAKEAKERANGMELDGRRIRVDFSITKRPHTPTPGIYMGRPTYGSSRRRDYYDRGYDRGYDDRDYYSRSYRGGGGGGGGWRAAQDRDQIYRRRSPSPYYSRGGYRSRSRSRSYSPRRY | binds |
| TRA2A (protein, UniProt Q13595 1-282) MSDVEENNFEGRESRSQSKSPTGTPARVKSESRSGSRSPSRVSKHSESHSRSRSKSRSRSRRHSHRRYTRSRSHSHSHRRRSRSRSYTPEYRRRRSRSHSPMSNRRRHTGSRANPDPNTCLGVFGLSLYTTERDLREVFSRYGPLSGVNVVYDQRTGRSRGFAFVYFERIDDSKEAMERANGMELDGRRIRVDYSITKRAHTPTPGIYMGRPTHSGGGGGGGGGGGGGGGGRRRDSYYDRGYDRGYDRYEDYDYRYRRRSPSPYYSRYRSRSRSRSYSPRRY | binds |
| serine/arginine repetitive matrix protein 1 (protein, UniProt Q8IYB3 1-904) MDAGFFRGTSAEQDNRFSNKQKKLLKQLKFAECLEKKVDMSKVNLEVIKPWITKRVTEILGFEDDVVIEFIFNQLEVKNPDSKMMQINLTGFLNGKNAREFMGELWPLLLSAQENIAGIPSAFLELKKEEIKQRQIEQEKLASMKKQDEDKDKRDKEEKESSREKRERSRSPRRRKSRSPSPRRRSSPVRRERKRSHSRSPRHRTKSRSPSPAPEKKEKTPELPEPSVKVKEPSVQEATSTSDILKVPKPEPIPEPKEPSPEKNSKKEKEKEKTRPRSRSRSKSRSRTRSRSPSHTRPRRRHRSRSRSYSPRRRPSPRRRPSPRRRTPPRRMPPPPRHRRSRSPVRRRRRSSASLSGSSSSSSSSRSRSPPKKPPKRTSSPPRKTRRLSPSASPPRRRHRPSPPATPPPKTRHSPTPQQSNRTRKSRVSVSPGRTSGKVTKHKGTEKRESPSPAPKPRKVELSESEEDKGGKMAAADSVQQRRQYRRQNQQSSSDSGSSSSSEDERPKRSHVKNGEVGRRRRHSPSRSASPSPRKRQKETSPRGRRRRSPSPPPTRRRRSPSPAPPPRRRRTPTPPPRRRTPSPPPRRRSPSPRRYSPPIQRRYSPSPPPKRRTASPPPPPKRRASPSPPPKRRVSHSPPPKQRSSPVTKRRSPSLSSKHRKGSSPSRSTREARSPQPNKRHSPSPRPRAPQTSSSPPPVRRGASSSPQRRQSPSPSTRPIRRVSRTPEPKKIKKAASPSPQSVRRVSSSRSVSGSPEPAAKKPPAPPSPVQSQSPSTNWSPAVPVKKAKSPTPSPSPPRNSDQEGGGKKKKKKKDKKHKKDKKHKKHKKHKKEKAVAAAAAAAVTPAAIAAATTTLAQEEPVAAPEPKKETESEAEDNLDDLEKHLREKALRSMRKAQVSPQS | binds |
| SR Splicing Factor SRSF4 (protein, UniProt Q08170 1-494) MPRVYIGRLSYQARERDVERFFKGYGKILEVDLKNGYGFVEFDDLRDADDAVYELNGKDLCGERVIVEHARGPRRDGSYGSGRSGYGYRRSGRDKYGPPTRTEYRLIVENLSSRCSWQDLKDYMRQAGEVTYADAHKGRKNEGVIEFVSYSDMKRALEKLDGTEVNGRKIRLVEDKPGSRRRRSYSRSRSHSRSRSRSRHSRKSRSRSGSSKSSHSKSRSRSRSGSRSRSKSRSRSQSRSRSKKEKSRSPSKEKSRSRSHSAGKSRSKSKDQAEEKIQNNDNVGKPKSRSPSRHKSKSKSRSRSQERRVEEEKRGSVSRGRSQEKSLRQSRSRSRSKGGSRSRSRSRSKSKDKRKGRKRSREESRSRSRSRSKSERSRKRGSKRDSKAGSSKKKKKEDTDRSQSRSPSRSVSKEREHAKSESSQREGRGESENAGTNQETRSRSRSNSKSKPNLPSESRSRSKSASKTRSRSKSRSRSASRSPSRSRSRSHSRS | binds |
| CPSF1 (protein, UniProt Q10570 1-1443) MYAVYKQAHPPTGLEFSMYCNFFNNSERNLVVAGTSQLYVYRLNRDAEALTKNDRSTEGKAHREKLELAASFSFFGNVMSMASVQLAGAKRDALLLSFKDAKLSVVEYDPGTHDLKTLSLHYFEEPELRDGFVQNVHTPRVRVDPDGRCAAMLVYGTRLVVLPFRRESLAEEHEGLVGEGQRSSFLPSYIIDVRALDEKLLNIIDLQFLHGYYEPTLLILFEPNQTWPGRVAVRQDTCSIVAISLNITQKVHPVIWSLTSLPFDCTQALAVPKPIGGVVVFAVNSLLYLNQSVPPYGVALNSLTTGTTAFPLRTQEGVRITLDCAQATFISYDKMVISLKGGEIYVLTLITDGMRSVRAFHFDKAAASVLTTSMVTMEPGYLFLGSRLGNSLLLKYTEKLQEPPASAVREAADKEEPPSKKKRVDATAGWSAAGKSVPQDEVDEIEVYGSEAQSGTQLATYSFEVCDSILNIGPCANAAVGEPAFLSEEFQNSPEPDLEIVVCSGHGKNGALSVLQKSIRPQVVTTFELPGCYDMWTVIAPVRKEEEDNPKGEGTEQEPSTTPEADDDGRRHGFLILSREDSTMILQTGQEIMELDTSGFATQGPTVFAGNIGDNRYIVQVSPLGIRLLEGVNQLHFIPVDLGAPIVQCAVADPYVVIMSAEGHVTMFLLKSDSYGGRHHRLALHKPPLHHQSKVITLCLYRDLSGMFTTESRLGGARDELGGRSGPEAEGLGSETSPTVDDEEEMLYGDSGSLFSPSKEEARRSSQPPADRDPAPFRAEPTHWCLLVRENGTMEIYQLPDWRLVFLVKNFPVGQRVLVDSSFGQPTTQGEARREEATRQGELPLVKEVLLVALGSRQSRPYLLVHVDQELLIYEAFPHDSQLGQGNLKVRFKKVPHNINFREKKPKPSKKKAEGGGAEEGAGARGRVARFRYFEDIYGYSGVFICGPSPHWLLVTGRGALRLHPMAIDGPVDSFAPFHNVNCPRGFLYFNRQGELRISVLPAYLSYDAPWPVRKIPLRCTAHYVAYHVESKVYAVATSTNTPCARIPRMTGEEKEFETIERDERYIHPQQEAFSIQLISPVSWEAIPNARIELQEWEHVTCMKTVSLRSEETVSGLKGYVAAGTCLMQGEEVTCRGRILIMDVIEVVPEPGQPLTKNKFKVLYEKEQKGPVTALCHCNGHLVSAIGQKIFLWSLRASELTGMAFIDTQLYIHQMISVKNFILAADVMKSISLLRYQEESKTLSLVSRDAKPLEVYSVDFMVDNAQLGFLVSDRDRNLMVYMYLPEAKESFGGMRLLRRADFHVGAHVNTFWRTPCRGATEGLSKKSVVWENKHITWFATLDGGIGLLLPMQEKTYRRLLMLQNALTTMLPHHAGLNPRAFRMLHVDRRTLQNAVRNVLDGELLNRYLYLSTMERSELAKKIGTTPDIILDDLLETDRVTAHF | binds |

Other lines, results leading:

| binding | Molecule |
| --- | --- |
| binds | MGN (from UniProt P61326 1-146) |
| binds | eIF4A3 (from UniProt P38919 1-411) |
| binds | SR Splicing Factor SRSF9 (from UniProt Q13242 1-221) |
| binds | serine/arginine repetitive matrix protein 2 (from UniProt Q9UQ35 1-2752) |
| binds | PCF11 (a 3′-end processing factor) (from UniProt O94913 1-1555) |
| binds | RNPS1 (protein, UniProt Q15287 1-305) MDLSGVKKKSLLGVKENNKKSSTRAPSPTKRKDRSDEKSKDRSKDKGATKESSEKDRGRDKTRKRRSASSGSSSTRSRSSSTSSSGSSTSTGSSSGSSSSSASSRSGSSSTSRSSSSSSSSGSPSPSRRRHDNRRRSRSKSKPPKRDEKERKRRSPSPKPTKVHIGRLTRNVTKDHIMEIFSTYGKIKMIDMPVERMHPHLSKGYAYVEFENPDEAEKALKHMDGGQIDGQEITATAVLAPWPRPPPRRFSPPRRMLPPPPMWRRSPPRMRRRSRSPRRRSPVRRRSRSPGRRRHRSRSSSNSSR |
| binds | SR Splicing Factor SRSF8 (protein, UniProt Q9BRL6 1-282) MSCGRPPPDVDGMITLKVDNLTYRTSPDSLRRVFEKYGRVGDVYIPREPHTKAPRGFAFVRFHDRRDAQDAEAAMDGAELDGRELRVQVARYGRRDLPRSRQGEPRGRSRGGGYGRRSRSYGRRSRSPRRRHRSRSRGPSCSRSRSRSRYRGSRYSRSPYSRSPYSRSRYSRSPYSRSRYRESRYGGSHYSSSGYSNSRYSRYHSSRSHSKSGSSTSSRSASTSKSSSARRSKSSSVSRSRSRSRSSSMTRSPPRVSKRKSKSRSRSKRPPKSPEEEGQMSS |
| binds | SR Splicing Factor SRSF7 (protein, UniProt Q16629 1-238) MSRYGRYGGETKVYVGNLGTGAGKGELERAFSYYGPLRTVWIARNPPGFAFVEFEDPRDAEDAVRGLDGKVICGSRVRVELSTGMPRRSRFDRPPARRPFDPNDRCYECGEKGHYAYDCHRYSRRRRSRSRSRSHSRSRGRRYSRSRSRSRGRRSRSASPRRSRSISLRRSRSASLRRSRSGSIKGSRYFQSPSRSRSRSRSISRPRSSRSKSRSPSPKRSRSPSGSPRRSASPERMD |
| binds | SR Splicing Factor SRSF6 (protein, UniProt Q13247 1-344) MPRVYIGRLSYNVREKDIQRFFSGYGRLLEVDLKNGYGFVEFEDSRDADDAVYELNGKELCGERVIVEHARGPRRDRDGYSYGSRSGGGGYSSRRTSGRDKYGPPVRTEYRLIVENLSSRCSWQDLKDFMRQAGEVTYADAHKERTNEGVIEFRSYSDMKRALDKLDGTEINGRNIRLIEDKPRTSHRRSYSGSRSRSRSRRRSRSRSRRSSRSRSRSISKSRSRSRSRSKGRSRSRSKGRKSRSKSKSKPKSDRGSHSHSRSRSKDEYEKSRSRSRSRSPKENGKGDIKSKSRSRSQSRSNSPLPVPPSKARSVSPPPKRATSRSRSRSRSKSRSRSRSSSRD |
| binds | SR Splicing Factor SRSF3 (protein, UniProt P84103 1-164) MHRDSCPLDCKVYVGNLGNNGNKTELERAFGYYGPLRSVWVARNPPGFAFVEFEDPRDAADAVRELDGRTLCGCRVRVELSNGEKRSRNRGPPPSWGRRPRDDYRRRSPPPRRRSPRRRSFSRSRSRSLSRDRRRERSLSRERNHKPSRSFSRSRSRSRSNERK |
